# In PubChem BioAssay AID1259354 (Paczesny and Yang Labs, IUPUI and University of Michigan, 2018):
# The chains behind the UniProt entries cited, without tags or fusion partners. Where a name states a change or a piece, a line headed by the entry shows the natural chain unless it says otherwise.
# UniProt Q01638: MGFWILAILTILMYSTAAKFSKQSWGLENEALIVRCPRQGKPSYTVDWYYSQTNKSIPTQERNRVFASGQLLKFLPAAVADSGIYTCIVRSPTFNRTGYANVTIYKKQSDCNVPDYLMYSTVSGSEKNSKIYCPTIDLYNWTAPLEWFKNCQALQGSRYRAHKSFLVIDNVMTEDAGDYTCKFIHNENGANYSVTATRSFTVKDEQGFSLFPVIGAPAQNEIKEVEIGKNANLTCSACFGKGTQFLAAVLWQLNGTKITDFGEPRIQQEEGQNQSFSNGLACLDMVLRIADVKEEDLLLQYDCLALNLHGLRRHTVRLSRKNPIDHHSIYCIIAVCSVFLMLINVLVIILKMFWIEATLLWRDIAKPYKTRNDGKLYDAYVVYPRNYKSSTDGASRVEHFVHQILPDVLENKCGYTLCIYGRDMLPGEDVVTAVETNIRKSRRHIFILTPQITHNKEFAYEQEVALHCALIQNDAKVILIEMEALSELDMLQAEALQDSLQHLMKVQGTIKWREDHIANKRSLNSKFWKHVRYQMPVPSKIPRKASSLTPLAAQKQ
# About 1,800 (2.3%) of roughly 78,000 compounds were called active. Inconclusive results, whose numbers are uncertain, are shown with a selection of clear calls. No stated cut-off is given here; in the data, active means inhibition above about 30%; inconclusive means mostly about 10% to 28%; inactive means weaker than that.
# Biological target: Interleukin-1 receptor-like 1 (Homo sapiens) (UniProt Q01638)
# Assay: blocks human ST2 binding to IL-33, primary screen, biochemical, AlphaLISA (AID 1259354)
# Conditions: AlphaLISA ST2-Fc/biotin-IL-33 interaction, 1 h; at 17 µM, active compounds read high
row,SMILES,inhibition
1,O=C1CCC2(CCCO2)CCN1Cc1cncn1C1CC1 (stereo not drawn),inconclusive: 18%
2,O=C(Nc1ccccn1)C1c2ccccc2C(=O)N2CCc3ccccc3C12 (stereo not drawn),inconclusive: 15%
3,CCOC(=O)c1cnc(SCc2ccccc2Cl)nc1N,inactive
4,CCOc1cccc(CN2CCOc3ccc(CN4CCC(O)(c5cccnc5)CC4)cc3C2)c1,inconclusive: 25%
5,Cc1[nH]c2ccccc2c1SCCNC(=O)c1ccc(Br)o1,inconclusive: 10%
6,CC(C)(C)NC(=O)C[C@@H]1CCNC[C@@H]1Cc1cc(-c2ccc(C(C)(C)C)cc2)on1,inconclusive: 16%
7,COCCn1c(CCCC(=O)NCc2cccnc2)nc2cccnc21,inactive
8,O=C(CCN1CCOCC1)N1CCCc2c1c(=O)oc1ccc(O)cc21,inconclusive: 13%
9,CCN(C(=O)c1cnc2n(c1=O)CCS2)c1cccc(C)c1,inactive
10,Cc1ccnn1CCC(=O)NC1CC(=O)N(C2CCCCCC2)C1 (stereo not drawn),inactive
11,COCCCNC(=O)c1cc(=O)[nH]c2ccc(Br)cc12,inconclusive: 12%
12,CCOC(=O)c1c(NC(=O)c2cc(Cl)ccc2OC)sc2c1CCC2,inactive
13,NC(=O)c1cc[n+](CC2=C(C(=O)O)N3C(=O)[C@@H](NC(=O)[C@@H](c4ccccc4)S(=O)(=O)[O-])[C@H]3SC2)cc1,inconclusive: 13%
14,COc1ccc(-c2ccc(CCC(=O)O)[nH]2)cc1,inconclusive: 19%
15,N#C/C(=C\c1ccc(O)cc1)c1nc(C2CC2)cs1,inconclusive: 18%
16,CC1(C)CC(=O)C2=C(C1)OC1=C(C(=O)CC(C)(C)C1)C2c1cccc(Cl)c1Cl,inactive
17,O=C(Nc1ccc(F)cc1)Nc1ccc(Cl)cc1,inconclusive: 14%
18,NC(=O)C1CCN([C@H]2[C@@H]3OC[C@@H](O3)[C@@H](NCc3ccc(F)cc3)[C@@H]2O)CC1,inconclusive: 18%
19,CC(=O)Nc1ccc(S(=O)(=O)N2CCN(c3nc(C)cc(N4CCCCC4)n3)CC2)cc1,inconclusive: 24%
20,O=c1/c(=C/c2ccccn2)sc2n1CN(c1cccc(F)c1)CN=2,inconclusive: 25%
21,CCOC(=O)c1cccnc1N1CCN(C2CC(C)(C)NC(C)(C)C2)CC1,inactive
22,C=CCNc1ccccc1C(=O)N(C)CC1CCN(c2ccccc2)C1 (stereo not drawn),inconclusive: 17%
23,CCN(CC)c1ccc(/C=C2/C(=O)NN(c3ccc(Cl)c(Cl)c3)C2=O)cc1,inconclusive: 29%
24,N#C/C(=C/c1cn(Cc2ccc(Cl)c(Cl)c2)c2ccccc12)C(=O)NCC1CCCO1 (stereo not drawn),inconclusive: 10%

# By substructure: those above containing a Cl atom (six)
row,SMILES,inhibition
3,CCOC(=O)c1cnc(SCc2ccccc2Cl)nc1N,inactive
12,CCOC(=O)c1c(NC(=O)c2cc(Cl)ccc2OC)sc2c1CCC2,inactive
16,CC1(C)CC(=O)C2=C(C1)OC1=C(C(=O)CC(C)(C)C1)C2c1cccc(Cl)c1Cl,inactive
17,O=C(Nc1ccc(F)cc1)Nc1ccc(Cl)cc1,inconclusive: 14%
23,CCN(CC)c1ccc(/C=C2/C(=O)NN(c3ccc(Cl)c(Cl)c3)C2=O)cc1,inconclusive: 29%
24,N#C/C(=C/c1cn(Cc2ccc(Cl)c(Cl)c2)c2ccccc12)C(=O)NCC1CCCO1 (stereo not drawn),inconclusive: 10%

# The results go on.

row,SMILES,inhibition
1,CCOc1ccccc1NC(=O)C1CC(=O)N(c2ccc(OC)cc2)C1c1ccc(OC)cc1 (stereo not drawn),inconclusive: 14%
2,CCOc1ccc(OCC)c(NC(=O)C(NS(=O)(=O)c2cccs2)c2ccccc2)c1 (stereo not drawn),inconclusive: 20%
3,CN1CCN([C@@H]2[C@H](O)[C@H](CO)O[C@@H]2CNC(=O)c2ccco2)CC1,inconclusive: 12%
4,CC(C)NC(=O)C[C@@H]1O[C@H](CNS(=O)(=O)c2ccccc2)[C@@H](O)[C@H]1O,inconclusive: 14%
5,Cc1ccc(Nc2cc(C)nc(N3CCN(S(=O)(=O)c4ccc(C)c(C)c4)CC3)n2)cc1,inconclusive: 19%
6,CCCCOc1ccc(C2C(C(=O)Nc3ccccc3OC)=C(C)Nc3nnnn32)cc1 (stereo not drawn),inactive
7,Cc1ccc(-c2coc3cc4oc(=O)cc(C)c4cc23)cc1,inactive
8,O=C(c1cccn2c(=O)c3sccc3nc12)N1CCN(c2ccc(F)cc2)CC1,inactive
9,COc1cc(OC)cc(C(=O)N2CCN=C2SCc2cccnc2)c1,inconclusive: 18%
10,CCN(CC)CCNC(=O)c1ccc2c(Cl)c3c(nc2c1)CCCC3,inactive
11,O=C(CSc1nc2c([nH]c3ccccc32)c(=O)n1-c1ccc(F)cc1)N1CCOCC1,inactive
12,CC(C)C(=O)NC(Oc1ccc(C=NC2CCS(=O)(=O)C2)cc1)C(Cl)(Cl)Cl (stereo not drawn),inconclusive: 14%
13,CCN(CC)c1ccc(C(=O)Nc2nc3ccc4nc(C)sc4c3s2)cc1,inconclusive: 11%
14,CCC1SC(=Nc2ccccc2)N(S(=O)(=O)c2ccc(C)cc2)C1=O (stereo not drawn),inconclusive: 13%
15,CNC(=O)N1C(=O)C(=O)c2ccccc21,inactive
16,CCN1C(=O)N(C2Cc3ccccc3C2)C(=O)C12CCN(Cc1ccoc1)CC2,inconclusive: 14%
17,COc1cc(C2C3=C(CC(C)(C)CC3=O)Nc3nc(SC)[nH]c(=O)c32)cc(OC)c1OC (stereo not drawn),inconclusive: 12%
18,CCc1nc(CN(C)Cc2cccc(C(=O)Nc3nccn3C)c2)no1,inconclusive: 18%
19,CCCCc1cn(C2CCN(C(=O)C3CC(=O)N(C(C)(C)C)C3)CC2)nn1 (stereo not drawn),inconclusive: 18%
20,Nc1nc2c(c(=O)[nH]1)CCN(C(=O)CSC13CC4CC(CC(C4)C1)C3)C2,inactive
21,O=C([C@@H]1Cc2nc[nH]c2CN1Cc1cccc(OC(F)(F)F)c1)N1CCC(Cc2ccccc2)CC1,inconclusive: 19%
22,COc1ccc(C(=O)N[C@H]2CO[C@H]3[C@@H]2OC[C@H]3OC(=O)Nc2ccccc2)cc1,inconclusive: 13%
23,Cc1ccc(F)cc1NC(=O)COc1ccc(Cl)cc1,inactive
24,CCC1CCCCN1S(=O)(=O)c1ccc(C(=O)Nc2nnc(-c3ccc(F)cc3)o2)cc1 (stereo not drawn),inactive

row,SMILES,inhibition
1,O=C1CC(c2cccs2)CC2=C1C(c1cccc(Cl)c1)Nc1ccccc1N2 (stereo not drawn),inconclusive: 21%
2,Cc1nc(CCNC(=O)c2cnn(-c3ccccn3)c2C)sc1C,inactive
3,O=C(c1n[nH]c2c1CCC2)N1CCc2c([nH]c3ccccc23)C1c1ccccc1F (stereo not drawn),inactive
4,O=C(Nc1cc(Br)ccc1O)c1cc(-c2ccc3c(c2)OCO3)on1,inconclusive: 11%
5,N#CC1=C(N)Oc2n[nH]c(-c3ccc(F)cc3)c2C1c1cn[nH]c1-c1ccc(F)cc1 (stereo not drawn),inconclusive: 23%
6,Cn1c(=NC(=O)c2cc(=O)c3ccccc3o2)sc2cc(Br)ccc21,inconclusive: 13%
7,CCC(C(=O)N1CCC(C(N)=O)CC1)c1ccccc1 (stereo not drawn),inconclusive: 10%
8,CC(C)Sc1nc2c(c(=O)n1-c1ccc(Br)cc1)SCC2,inconclusive: 16%
9,O=C(Nc1ccc2nc(-c3ccco3)c(-c3ccco3)nc2c1)NC1CC1,inconclusive: 29%
10,CC(C)c1cc(CN2CCN(C3CCN(C(C)C)CC3)C(CCO)C2)[nH]n1 (stereo not drawn),inactive
11,COCCn1cc(C(=O)NCCN(C)C)c2c3ccccc3n(C)c2c1=O,inconclusive: 14%
12,COc1ccc(N2CCN(Cc3ccc4nsnc4c3)C(C)C2)cc1 (stereo not drawn),inconclusive: 23%
13,Oc1ccccc1-c1nnc2n1N=C(c1ccc(Cl)cc1)CS2,inactive
14,O=C(CCCn1cncn1)N1CCCC(CO)(Cc2cccc(Cl)c2)C1 (stereo not drawn),inactive
15,CC1=C(C(=O)Nc2ccc(C)cc2C)C(c2ccncc2)n2c(nc3ccccc32)N1 (stereo not drawn),inactive
16,CCCn1c2ccc(C)cc2c2nc3ccccc3nc21,inconclusive: 24%
17,CCCCN1C(=O)S/C(=C\c2cc(C)n(C)c2C)C1=O,active: 39%
18,C=CCC(=O)N(Cc1ccccc1OCC)C1CC1,inconclusive: 25%
19,Oc1ccc(O)c(SCCCCN2CCOCC2)c1,inconclusive: 21%
20,COc1ccc(C(=O)ON=C2c3ccccc3-c3ccccc32)cc1,active: 40%
21,CCN(CCN1CCCC1)Cc1cccnc1,inactive
22,NC(C(=O)N[C@@H]1C(=O)N2C(C(=O)O)=C(Cl)CS[C@H]12)c1ccccc1 (stereo partly drawn),inconclusive: 11%
23,O=C(NCc1cccnc1)c1ccc2nc3ccsc3c(=O)n2c1,inactive
24,COc1cccc(CN(C)Cc2nc(Cc3ccccc3Cl)no2)c1,inconclusive: 12%

row,SMILES,inhibition
1,COc1cc(C)c(NC(=O)c2cc3ccccc3o2)cc1C(C)C,inconclusive: 22%
2,CCC1(C2CCN(C(=O)c3ncccc3C)CC2)NC(=O)NC1=O (stereo not drawn),inconclusive: 24%
3,COCc1ccc(C(=O)N(CC2CCN(C3CCCC3)CC2)CC2CCCO2)o1 (stereo not drawn),inconclusive: 11%
4,c1ccc2oc(CN3CC[C@H](c4nnc(-c5ccncc5)o4)C3)cc2c1,inconclusive: 18%
5,COC(=O)C1C(=O)C2=C(CC1C)NC(C)=C(C(=O)OC1CCCCC1)C2c1cccc(O)c1 (stereo not drawn),inconclusive: 13%
6,CCOC(=O)Cn1c(=O)n(-c2ccc(C)c(C)c2)c2nc(-c3ccccc3OC)nc(C(N)=O)c21,inconclusive: 13%
7,c1ccc(N2CCN(c3nc4cc5c(cc4s3)OCO5)CC2)cc1,inconclusive: 17%
8,COc1cccc(NC(=O)CCC(=O)O)c1,inconclusive: 10%
9,O=C(O)c1cccnc1Nc1cccc(C(F)(F)F)c1,inconclusive: 25%
10,COc1ccc(OCc2ccccc2F)c(/C=C2\C(=O)NN(c3ccccc3)C2=O)c1,active: 35%
11,O=C1N/C(=C\c2ccc(Br)s2)C(=O)N1Cc1ccc(Cl)cc1,inactive
12,CCNC(=O)[C@@H]1C[C@@H](N)CN1C(=O)c1nn(C)c2c1CCCC2,inconclusive: 17%
13,CCC1c2cccn2CCN1S(=O)(=O)NCc1ccccc1 (stereo not drawn),inconclusive: 11%
14,Cn1ccnc1C(NC(=O)Cc1ccccn1)C1CC1 (stereo not drawn),inactive
15,COc1ccc(-c2cncnc2)c(C)c1,inconclusive: 17%
16,CNCC(=O)NC(c1cccc(C)c1)c1cccs1 (stereo not drawn),inconclusive: 10%
17,O=C(O)c1cccc(NC(=O)c2ccc3c(c2)C(=O)N(c2nccs2)C3=O)c1,inactive
18,CCN1CCN(C(=O)CCC2CCN(C(=O)Cc3ccc(OC)c(OC)c3)CC2)CC1,inconclusive: 13%
19,Cc1cc(NCCCCO)n2c(nc3ccccc32)c1C#N,inconclusive: 10%
20,CCSc1nc(CC(=O)NCCc2n[nH]c3c2CCCC3)cs1,inconclusive: 16%
21,CCN1C(=O)C(O)(CC(=O)c2ccc([N+](=O)[O-])cc2)c2ccccc21 (stereo not drawn),inconclusive: 17%

# Compounds shown so far that have a tert-butyl group:
row,SMILES,inhibition
6,CC(C)(C)NC(=O)C[C@@H]1CCNC[C@@H]1Cc1cc(-c2ccc(C(C)(C)C)cc2)on1,inconclusive: 16%
19,CCCCc1cn(C2CCN(C(=O)C3CC(=O)N(C(C)(C)C)C3)CC2)nn1 (stereo not drawn),inconclusive: 18%
